Experimental findings from publication PMC4550094 (Journal of biomolecular screening, 2013) are described below.

The assay concerns HepG2 cells. The experiment in a line: CellTiter-Glo cell viability assay. It is filed as cell-based, Human. The note with it: HepG2, 24 h treatment; mean ± SD of three experiments. Background: Cellular ATP, detected with luciferase, serves as a proxy for viable cell number.

`CCCCc1oc2ccccc2c1C(=O)c1cc(I)c(OCCN(CC)CC)c(I)c1` [Amiodarone]: the “Cell Viability Efficacy (maximum inhibition of cell viability)” value is reported as 63.1±32.1%.
